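Genome-wide siRNA knockdown in TC32 Ewing sarcoma cells, comparing luciferase light from an NR0B1-promoter reporter with a CMV-promoter reporter 48 hours after transfection. Each siRNA was applied at 20 nM. A z-score of the log NR0B1-over-CMV signal, less the median of siRNAs with the same seed; more negative means a stronger specific loss of the NR0B1 reporter.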

The strongest results of the screen are mostly left out here. Sequences are the guide (antisense) strand, without overhang.

UUCGGUUUCUCAUGUUUCU against EML2 read seed-corrected z-score 0.4803. Result for AAACUUGUCUGAAAUGAUG against DDO was seed-corrected z-score 0.04897. AGUCUGAUAACUGACCUGC against SLC17A1 read seed-corrected z-score -0.3815. With AAUGAGAUUAGACUUACUG against ZNF671 the assay gave seed-corrected z-score -0.1054. For UGAGAAUCCACCUCUUCGC against LAS1L the result was seed-corrected z-score 0.4928.

Result for UCUGGUAUUGGGCAACUGC against CMBL was seed-corrected z-score -0.1157. With AUCAGUUGCAAACACGAUG against CMTM3 the assay gave seed-corrected z-score 0.136. For UGUUUGAUUCGGAACAAGU against TMEM177 the result was seed-corrected z-score -0.04473. UCUGGGCCCAGUAACUCAG against S100A8 read seed-corrected z-score 1.559. UUGGUUGUCGUUCUGAGUC against KIF4B read seed-corrected z-score -0.4813.

AGACCAUUUAUCAACAUCC against PDE1A gave seed-corrected z-score 0.693. UGAUCAAUUACUGUAACUG against FAM35A gave seed-corrected z-score 0.4409. For UUCUGACCACCCAUUAUUC against ANKRD36BP2 the result was seed-corrected z-score -0.3843. For UCUCUGCUGAAAUUAGAGG against LOC732226 the result was seed-corrected z-score -1.707. UUCGUAAAACUAAUGCUUC against PLD5 read seed-corrected z-score -0.1079.

UUAUUUAAUACCUCUCGUU against CWC25 read seed-corrected z-score 0.667. Result for AGAAUAACAUCAGCUAUGG against NDUFS1 was seed-corrected z-score -0.3825. Result for UUCUGCUCAACGCUGGCUC against HPX-2 was seed-corrected z-score 0.4891. Result for UAAGUAAUAAAAGGGCCUG against PHC1P1 was seed-corrected z-score 1.239. AACACAGACACGUUGCGGC against FAM173A gave seed-corrected z-score 0.2656.

Result for UGCUGGGCAAAGGAUAACC against ACTL7A was seed-corrected z-score 0.02538. UUAGUAGACUGGGUCUACG against LOC646471 gave seed-corrected z-score -0.4724. With UCUAGUAUCUAACAAUUCC against NFU1 the assay gave seed-corrected z-score 0.839. AUAAUGAUAAGCAGUGUAC against PHYHIPL gave seed-corrected z-score -0.06299. UUCUUCAUAAGAACUAAAU against MS4A4E read seed-corrected z-score -0.9196.

With UUGUUGUUGAGAAGGACCG against TAB1 the assay gave seed-corrected z-score 0.9915. For UGAUUCACCGUCACUAUGG against SLITRK3 the result was seed-corrected z-score 0.6803. AUUCGUCUAAUUAAGUCUC against OSBPL11 gave seed-corrected z-score 0.9422. Result for AAUGGUCAAAGUUGACUUC against STK32B was seed-corrected z-score -0.8611. UUUGAAGUCAACACCCACG against RAB12 read seed-corrected z-score 0.4773.

UACUGGUCUUUCAACUCCU against RPL37A read seed-corrected z-score 0.7951. AUGGGUUCCAGUUUGCUUC against ENHO read seed-corrected z-score 0.04701. For UGUGCGUACAGCUCCCUCU against C8orf31 the result was seed-corrected z-score -0.696. UAAAGUGUCACUGCAGUGA against OR8S1 gave seed-corrected z-score 0.8399. UACGUCUUUACCACUAGCC against LOC729696 read seed-corrected z-score -1.149.

UCGCAGUCAUGAAAAGUGG against DPM3 read seed-corrected z-score -0.01048. With AUCUGAGCAACAACCAGUC against LPGAT1 the assay gave seed-corrected z-score -0.154. For CAGAGGAUAAUGAAAACUU against NPIPB1P the result was seed-corrected z-score 0.62.

5 of the entries, repeated:

{"strand": "AUUCGUCUAAUUAAGUCUC", "target gene": "OSBPL11", "seed-corrected z-score": "0.9422"}
{"strand": "AAUGAGAUUAGACUUACUG", "target gene": "ZNF671", "seed-corrected z-score": "-0.1054"}
{"strand": "UCUGGUAUUGGGCAACUGC", "target gene": "CMBL", "seed-corrected z-score": "-0.1157"}
{"strand": "UUAGUAGACUGGGUCUACG", "target gene": "LOC646471", "seed-corrected z-score": "-0.4724"}
{"strand": "UCGCAGUCAUGAAAAGUGG", "target gene": "DPM3", "seed-corrected z-score": "-0.01048"}

Data taken from PubChem BioAssay AID1159506, deposited by NCATS (2015).